Reference: PMC4822561
These are yes or no findings as the source states them, for the method shown. Some entries that bind do so weakly or less than the wild type.

Target: T1, K. pneumoniae topoisomerase IV ParC breakage-reunion domain (ParC55; residues 1–490) (K. pneumoniae (strain ATCC 35657))
T1 sequence: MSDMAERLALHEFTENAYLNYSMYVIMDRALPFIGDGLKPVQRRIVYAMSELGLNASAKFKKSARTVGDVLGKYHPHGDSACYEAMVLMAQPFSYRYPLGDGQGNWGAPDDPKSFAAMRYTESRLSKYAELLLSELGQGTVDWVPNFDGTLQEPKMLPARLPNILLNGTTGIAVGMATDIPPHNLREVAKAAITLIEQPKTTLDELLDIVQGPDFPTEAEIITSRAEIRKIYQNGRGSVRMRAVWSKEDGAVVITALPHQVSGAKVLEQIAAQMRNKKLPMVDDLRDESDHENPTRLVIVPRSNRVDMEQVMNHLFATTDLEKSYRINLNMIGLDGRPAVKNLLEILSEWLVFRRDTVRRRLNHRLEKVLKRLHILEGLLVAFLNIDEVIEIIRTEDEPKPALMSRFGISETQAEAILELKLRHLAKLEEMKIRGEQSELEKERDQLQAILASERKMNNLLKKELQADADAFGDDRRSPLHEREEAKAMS
Experiment: crystal structure; K. pneumoniae ParE-ParC fusion (4.5 mg/ml) co-crystallised with pre-cut 34-mer E-site DNA (1:1.2 protein:DNA), 2 mM levofloxacin, 10 mM MgCl2; vapour diffusion, 298 K; 3.35 Å, space group P2(1); both purified

B1: K. pneumoniae topoisomerase IV ParE TOPRIM domain (ParE30; residues 390–631) (domain or fragment)
chain: KKLTSGPALPGKLADCTAQDLNRTELFLVEGDSAGGSAKQARDREYQAIMPLKGKILNTWEVSSDEVLASQEVHDISVAIGIDPDSDDLSQLRYGKICILADADSDGLHIATLLCALFVRHFRTLVKEGHVYVALPPLYRIDLGKEVYYALTEEEKTGVLEQLKRKKGKPNVQRFKGLGEMNPMQLRETTLDPNTRRLVQLVISDEDEQQTTAIMDMLLAKKRSEDRRNWLQEKGDMADLEV
binding: binds
